± gives the standard deviation of the averaged measurements. The entries are a selection whose mix differs from that of the whole data set.

By UniProt entry, the sequences of proteins in these tests, tags left out. Where a name states a change or a piece, a line headed by the entry shows the natural chain unless it says otherwise.
UniProt Q12800: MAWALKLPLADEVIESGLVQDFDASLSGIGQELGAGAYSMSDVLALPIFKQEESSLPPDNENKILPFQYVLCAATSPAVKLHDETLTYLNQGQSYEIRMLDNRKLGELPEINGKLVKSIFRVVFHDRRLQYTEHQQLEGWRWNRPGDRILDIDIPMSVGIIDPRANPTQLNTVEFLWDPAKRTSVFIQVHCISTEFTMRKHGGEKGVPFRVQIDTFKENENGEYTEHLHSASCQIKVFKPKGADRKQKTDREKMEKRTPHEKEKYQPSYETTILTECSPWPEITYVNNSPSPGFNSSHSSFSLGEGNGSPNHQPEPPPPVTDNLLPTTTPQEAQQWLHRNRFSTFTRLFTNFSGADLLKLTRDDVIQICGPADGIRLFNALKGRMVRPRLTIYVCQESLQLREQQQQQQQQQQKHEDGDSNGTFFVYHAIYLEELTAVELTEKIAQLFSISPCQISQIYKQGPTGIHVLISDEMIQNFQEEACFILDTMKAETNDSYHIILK
UniProt Q13952: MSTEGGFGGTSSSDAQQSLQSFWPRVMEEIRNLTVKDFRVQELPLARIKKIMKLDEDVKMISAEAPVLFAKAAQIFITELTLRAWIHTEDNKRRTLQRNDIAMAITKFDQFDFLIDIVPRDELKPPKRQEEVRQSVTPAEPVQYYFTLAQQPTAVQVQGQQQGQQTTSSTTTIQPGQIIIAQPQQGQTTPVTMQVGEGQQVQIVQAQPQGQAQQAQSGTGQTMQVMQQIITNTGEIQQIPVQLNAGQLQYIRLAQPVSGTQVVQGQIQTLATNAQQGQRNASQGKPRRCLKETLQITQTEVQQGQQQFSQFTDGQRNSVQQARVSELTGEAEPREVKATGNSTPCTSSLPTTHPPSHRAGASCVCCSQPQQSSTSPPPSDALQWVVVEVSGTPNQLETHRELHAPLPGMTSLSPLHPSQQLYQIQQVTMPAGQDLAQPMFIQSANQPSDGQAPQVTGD
UniProt Q15013: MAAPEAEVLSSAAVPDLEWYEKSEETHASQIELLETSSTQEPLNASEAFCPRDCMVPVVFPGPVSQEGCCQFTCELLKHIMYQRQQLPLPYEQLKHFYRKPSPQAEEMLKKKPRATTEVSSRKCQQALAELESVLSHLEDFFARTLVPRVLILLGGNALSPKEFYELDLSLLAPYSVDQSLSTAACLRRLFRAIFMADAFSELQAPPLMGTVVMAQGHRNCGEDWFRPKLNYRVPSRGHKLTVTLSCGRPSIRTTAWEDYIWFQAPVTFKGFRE
UniProt Q12874: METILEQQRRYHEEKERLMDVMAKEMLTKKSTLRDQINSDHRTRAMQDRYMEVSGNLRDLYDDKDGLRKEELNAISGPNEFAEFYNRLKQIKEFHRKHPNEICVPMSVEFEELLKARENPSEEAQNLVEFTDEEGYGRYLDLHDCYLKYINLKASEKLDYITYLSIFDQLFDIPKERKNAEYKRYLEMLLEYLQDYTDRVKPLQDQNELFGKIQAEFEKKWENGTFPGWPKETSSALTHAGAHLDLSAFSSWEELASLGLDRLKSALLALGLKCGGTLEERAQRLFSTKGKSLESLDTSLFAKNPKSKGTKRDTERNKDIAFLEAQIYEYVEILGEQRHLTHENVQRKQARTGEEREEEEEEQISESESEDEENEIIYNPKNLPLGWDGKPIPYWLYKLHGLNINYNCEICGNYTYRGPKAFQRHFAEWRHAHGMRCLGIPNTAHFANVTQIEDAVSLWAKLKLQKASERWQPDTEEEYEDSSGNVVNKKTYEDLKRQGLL
UniProt Q13347, whole entry: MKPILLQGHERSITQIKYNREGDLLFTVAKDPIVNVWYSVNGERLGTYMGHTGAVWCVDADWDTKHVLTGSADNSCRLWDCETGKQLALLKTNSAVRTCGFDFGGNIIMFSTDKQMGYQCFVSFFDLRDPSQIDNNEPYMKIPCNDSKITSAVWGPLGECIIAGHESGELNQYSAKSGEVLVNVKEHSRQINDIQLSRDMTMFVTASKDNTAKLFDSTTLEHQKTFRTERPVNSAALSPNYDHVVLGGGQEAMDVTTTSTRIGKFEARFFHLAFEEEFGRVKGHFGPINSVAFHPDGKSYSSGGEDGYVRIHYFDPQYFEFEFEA
UniProt Q14498: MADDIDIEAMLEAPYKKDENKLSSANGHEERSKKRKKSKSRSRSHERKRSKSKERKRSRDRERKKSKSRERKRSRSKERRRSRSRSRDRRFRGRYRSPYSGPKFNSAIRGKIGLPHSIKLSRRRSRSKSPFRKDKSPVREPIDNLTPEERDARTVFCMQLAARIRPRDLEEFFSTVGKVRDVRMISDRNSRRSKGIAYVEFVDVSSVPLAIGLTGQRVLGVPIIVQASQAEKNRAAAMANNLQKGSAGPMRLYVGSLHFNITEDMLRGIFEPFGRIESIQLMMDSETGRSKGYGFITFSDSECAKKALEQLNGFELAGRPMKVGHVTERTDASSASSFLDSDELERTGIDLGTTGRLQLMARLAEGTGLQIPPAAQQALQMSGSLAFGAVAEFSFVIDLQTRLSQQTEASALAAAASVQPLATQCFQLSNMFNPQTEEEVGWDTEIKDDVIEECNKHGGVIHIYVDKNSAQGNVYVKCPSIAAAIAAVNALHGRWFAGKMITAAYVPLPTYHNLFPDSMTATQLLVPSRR
UniProt Q13151: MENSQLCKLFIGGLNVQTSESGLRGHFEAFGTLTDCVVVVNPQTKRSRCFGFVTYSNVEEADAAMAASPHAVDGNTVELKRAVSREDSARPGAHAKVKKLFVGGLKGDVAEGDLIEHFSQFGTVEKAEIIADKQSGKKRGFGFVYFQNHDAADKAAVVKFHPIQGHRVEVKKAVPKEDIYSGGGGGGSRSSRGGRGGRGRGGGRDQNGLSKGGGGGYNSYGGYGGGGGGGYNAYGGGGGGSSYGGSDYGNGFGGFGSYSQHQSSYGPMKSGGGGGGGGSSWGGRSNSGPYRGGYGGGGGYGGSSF
UniProt Q15024, whole entry: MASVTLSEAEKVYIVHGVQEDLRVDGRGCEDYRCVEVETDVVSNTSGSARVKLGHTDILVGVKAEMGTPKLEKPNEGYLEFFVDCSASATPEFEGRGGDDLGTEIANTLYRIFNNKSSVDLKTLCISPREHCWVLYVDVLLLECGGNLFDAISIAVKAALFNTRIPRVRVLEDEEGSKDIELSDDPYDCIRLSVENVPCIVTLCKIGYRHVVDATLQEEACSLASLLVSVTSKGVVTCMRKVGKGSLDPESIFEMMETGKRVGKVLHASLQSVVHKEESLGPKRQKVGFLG
UniProt Q12904: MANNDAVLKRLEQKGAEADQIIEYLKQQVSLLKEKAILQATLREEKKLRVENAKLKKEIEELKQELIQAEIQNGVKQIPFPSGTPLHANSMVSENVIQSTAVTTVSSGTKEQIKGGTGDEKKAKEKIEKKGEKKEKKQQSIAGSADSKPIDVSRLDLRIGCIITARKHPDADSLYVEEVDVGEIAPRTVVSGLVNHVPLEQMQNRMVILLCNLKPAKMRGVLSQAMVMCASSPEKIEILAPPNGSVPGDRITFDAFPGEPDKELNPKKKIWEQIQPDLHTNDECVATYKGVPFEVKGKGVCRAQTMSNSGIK
UniProt Q13153, whole entry: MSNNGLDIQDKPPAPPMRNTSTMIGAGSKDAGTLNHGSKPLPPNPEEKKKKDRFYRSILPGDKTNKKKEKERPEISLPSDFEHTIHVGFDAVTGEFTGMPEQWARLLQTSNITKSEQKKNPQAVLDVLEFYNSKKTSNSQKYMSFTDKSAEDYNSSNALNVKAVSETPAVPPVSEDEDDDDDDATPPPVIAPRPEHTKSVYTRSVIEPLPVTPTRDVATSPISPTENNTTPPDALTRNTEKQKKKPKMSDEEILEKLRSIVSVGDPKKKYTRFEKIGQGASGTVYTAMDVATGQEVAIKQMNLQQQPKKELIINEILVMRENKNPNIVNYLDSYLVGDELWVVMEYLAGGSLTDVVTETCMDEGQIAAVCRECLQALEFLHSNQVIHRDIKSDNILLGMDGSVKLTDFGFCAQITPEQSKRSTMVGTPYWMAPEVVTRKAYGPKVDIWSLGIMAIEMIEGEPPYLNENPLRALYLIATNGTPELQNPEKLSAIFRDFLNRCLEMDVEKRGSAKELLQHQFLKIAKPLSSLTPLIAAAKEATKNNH
UniProt Q13136: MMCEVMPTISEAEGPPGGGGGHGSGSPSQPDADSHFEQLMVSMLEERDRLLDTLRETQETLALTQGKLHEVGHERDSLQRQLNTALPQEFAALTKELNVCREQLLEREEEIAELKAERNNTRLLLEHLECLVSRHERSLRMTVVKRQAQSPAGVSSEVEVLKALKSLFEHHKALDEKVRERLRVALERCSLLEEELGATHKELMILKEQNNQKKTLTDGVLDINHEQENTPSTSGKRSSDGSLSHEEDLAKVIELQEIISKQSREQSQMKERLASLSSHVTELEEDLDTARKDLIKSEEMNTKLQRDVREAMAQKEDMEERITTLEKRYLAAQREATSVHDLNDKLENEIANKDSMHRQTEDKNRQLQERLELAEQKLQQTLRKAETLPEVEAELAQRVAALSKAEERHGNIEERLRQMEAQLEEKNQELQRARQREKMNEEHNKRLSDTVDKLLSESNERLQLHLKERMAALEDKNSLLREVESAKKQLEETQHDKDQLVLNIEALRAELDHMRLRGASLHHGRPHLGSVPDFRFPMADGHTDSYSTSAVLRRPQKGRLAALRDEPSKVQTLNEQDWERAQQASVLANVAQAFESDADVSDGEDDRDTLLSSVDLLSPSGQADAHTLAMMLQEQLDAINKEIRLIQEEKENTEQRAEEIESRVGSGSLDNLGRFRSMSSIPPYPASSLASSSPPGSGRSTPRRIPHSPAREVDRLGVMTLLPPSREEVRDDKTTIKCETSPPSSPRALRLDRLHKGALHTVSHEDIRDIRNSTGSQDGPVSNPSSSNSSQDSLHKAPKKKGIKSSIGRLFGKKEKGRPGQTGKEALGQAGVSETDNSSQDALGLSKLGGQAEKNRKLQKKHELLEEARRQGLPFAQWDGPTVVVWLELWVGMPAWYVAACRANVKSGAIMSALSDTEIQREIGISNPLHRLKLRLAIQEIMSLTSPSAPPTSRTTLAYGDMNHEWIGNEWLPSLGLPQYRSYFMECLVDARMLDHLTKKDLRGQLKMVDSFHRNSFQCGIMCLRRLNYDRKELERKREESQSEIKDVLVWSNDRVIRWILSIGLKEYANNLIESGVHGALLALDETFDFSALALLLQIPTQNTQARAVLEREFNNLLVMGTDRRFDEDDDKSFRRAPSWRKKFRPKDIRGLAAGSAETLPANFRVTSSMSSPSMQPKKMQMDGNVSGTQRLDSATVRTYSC
UniProt Q14186: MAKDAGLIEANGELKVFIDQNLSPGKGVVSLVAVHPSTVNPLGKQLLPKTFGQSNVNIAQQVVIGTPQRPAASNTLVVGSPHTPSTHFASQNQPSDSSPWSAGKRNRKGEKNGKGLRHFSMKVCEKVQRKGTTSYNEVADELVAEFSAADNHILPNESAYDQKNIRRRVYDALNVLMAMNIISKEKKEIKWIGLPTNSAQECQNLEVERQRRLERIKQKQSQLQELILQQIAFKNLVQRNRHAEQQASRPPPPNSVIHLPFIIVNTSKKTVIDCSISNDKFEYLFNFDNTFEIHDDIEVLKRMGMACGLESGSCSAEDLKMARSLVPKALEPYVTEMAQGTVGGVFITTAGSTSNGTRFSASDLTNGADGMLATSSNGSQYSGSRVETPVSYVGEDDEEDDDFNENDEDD
UniProt Q13438: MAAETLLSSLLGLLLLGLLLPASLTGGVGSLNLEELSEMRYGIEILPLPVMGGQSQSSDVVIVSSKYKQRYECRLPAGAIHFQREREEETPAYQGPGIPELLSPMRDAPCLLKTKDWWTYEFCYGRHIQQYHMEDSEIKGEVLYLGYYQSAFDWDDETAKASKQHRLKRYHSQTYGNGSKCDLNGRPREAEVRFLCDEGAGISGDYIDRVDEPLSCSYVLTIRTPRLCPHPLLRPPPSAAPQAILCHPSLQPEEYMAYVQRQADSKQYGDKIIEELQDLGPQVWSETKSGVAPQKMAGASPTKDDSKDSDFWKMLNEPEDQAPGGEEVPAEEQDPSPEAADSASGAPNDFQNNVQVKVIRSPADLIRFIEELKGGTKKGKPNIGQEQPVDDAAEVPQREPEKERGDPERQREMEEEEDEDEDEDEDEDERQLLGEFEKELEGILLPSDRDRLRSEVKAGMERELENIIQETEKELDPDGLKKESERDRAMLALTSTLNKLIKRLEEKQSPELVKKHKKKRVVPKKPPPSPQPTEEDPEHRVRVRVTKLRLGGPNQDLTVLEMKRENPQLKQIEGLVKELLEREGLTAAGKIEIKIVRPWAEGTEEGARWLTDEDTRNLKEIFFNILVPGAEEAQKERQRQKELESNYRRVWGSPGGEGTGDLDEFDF

Among the data in the supplement of paper PMC6411743 are NP40-soluble protein abundance values, retold here.

Compound in this test: Nc1ncnc2c1ncn2[C@@H]1O[C@H](COP(=O)(O)OP(=O)(O)NP(=O)(O)O)[C@@H](O)[C@H]1O [adenylyl imidodiphosphate]
As to the kind of experiment: NP40-soluble protein abundance relative to vehicle (solubility fold change) (ratio); higher = more soluble protein in presence of AMP-PNP. The gist of the method: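 Values are fold changes against the detergent-processed vehicle, based on vsn-normalised intensities. Jurkat crude lysate was treated at eight concentrations from 0.1 to 10 mM (10 min at room temperature, then 3 min at 37 °C), solubilised with 0.8% NP40 and benzonase, ultracentrifuged and analysed by TMT-labelled LC-MS/MS over three independent experiments.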

PWP1 (UniProt Q13610): the NP40-soluble protein abundance is, setting by setting: (concentration: 1mM) 1.06 ± 0.041; (concentration: 2mM) 1.04 ± 0.066; (concentration: 4mM) 1.03 ± 0.039; (concentration: 6mM) 1.03 ± 0.018; (concentration: 8mM) 1.02 ± 0.045; (concentration: 10mM) 1.03 ± 0.029.
Take UniProt Q12800 and related entries: the NP40-soluble protein abundance runs as follows: (concentration: 1mM) 0.98 ± 0.013; (concentration: 2mM) 0.996 ± 0.066; (concentration: 4mM) 1.07 ± 0.033; (concentration: 6mM) 0.957 ± 0.011; (concentration: 8mM) 0.967 ± 0.045; (concentration: 10mM) 1.04 ± 0.025.
In the case of UniProt Q13952 and related entries, the NP40-soluble protein abundance reads like this: (concentration: 1mM) 1 ± 0.011; (concentration: 2mM) 1.03 ± 0.051; (concentration: 4mM) 1.001 ± 0.0077; (concentration: 6mM) 1 ± 0.018; (concentration: 8mM) 1.01 ± 0.011; (concentration: 10mM) 1.01 ± 0.029.
For “UniProt Q13555-2|Q13555-8|Q13555-9|A0A0A0MT11|Q13555 and related entries”, the NP40-soluble protein abundance (concentration: 1mM) came to 0.955 ± 0.068; the NP40-soluble protein abundance (concentration: 2mM) was 0.903 ± 0.045; the NP40-soluble protein abundance (concentration: 4mM) came to 0.899 ± 0.069; the NP40-soluble protein abundance (concentration: 6mM) worked out at 0.879 ± 0.05; the NP40-soluble protein abundance (concentration: 8mM) was 0.867 ± 0.045; the NP40-soluble protein abundance (concentration: 10mM) was 0.87 ± 0.067.
Regarding UniProt Q15013 and related entries, the NP40-soluble protein abundance came out at 1.01 ± 0.02 (concentration: 1mM); 1.05 ± 0.024 (concentration: 2mM); 0.999 ± 0.053 (concentration: 4mM); 0.993 ± 0.033 (concentration: 6mM); 0.996 ± 0.019 (concentration: 8mM); 1.01 ± 0.022 (concentration: 10mM).
Take SF3A3 (UniProt Q12874): the NP40-soluble protein abundance (concentration: 1mM) was determined as 1.01 ± 0.034; the NP40-soluble protein abundance (concentration: 2mM) was determined as 1.03 ± 0.023; the NP40-soluble protein abundance (concentration: 4mM) was found to be 0.979 ± 0.041; the NP40-soluble protein abundance (concentration: 6mM) is 1.03 ± 0.026; the NP40-soluble protein abundance (concentration: 8mM) worked out at 1.016 ± 0.0074; the NP40-soluble protein abundance (concentration: 10mM) came out at 1.04 ± 0.028.
In the case of EIF3I (UniProt Q13347), the NP40-soluble protein abundance is, setting by setting: (concentration: 1mM) 0.984 ± 0.038; (concentration: 2mM) 0.961 ± 0.053; (concentration: 4mM) 1.01 ± 0.056; (concentration: 6mM) 1.11 ± 0.021; (concentration: 8mM) 1.16 ± 0.075; (concentration: 10mM) 1.2 ± 0.1.
As for UniProt Q13838 and related entries, the NP40-soluble protein abundance reads like this: (concentration: 1mM) 0.857 ± 0.07; (concentration: 2mM) 0.784 ± 0.11; (concentration: 4mM) 0.865 ± 0.071; (concentration: 6mM) 0.882 ± 0.08; (concentration: 8mM) 0.964 ± 0.053; (concentration: 10mM) 0.934 ± 0.032.
Take WRN (UniProt Q14191): the NP40-soluble protein abundance amounted to 1.07 ± 0.029 (concentration: 1mM); 1.11 ± 0.016 (concentration: 2mM); 1.11 ± 0.047 (concentration: 4mM); 1.09 ± 0.078 (concentration: 6mM); 1.06 ± 0.043 (concentration: 8mM); 1.11 ± 0.079 (concentration: 10mM).
As to UniProt Q14498 and related entries, the NP40-soluble protein abundance by setting is: (concentration: 1mM) 1.02 ± 0.027; (concentration: 2mM) 1.03 ± 0.035; (concentration: 4mM) 1.08 ± 0.034; (concentration: 6mM) 1.098 ± 0.0082; (concentration: 8mM) 1.12 ± 0.03; (concentration: 10mM) 1.19 ± 0.021.
In the case of HNRNPA0 (UniProt Q13151), the NP40-soluble protein abundance reads like this: (concentration: 1mM) 1.02 ± 0.063; (concentration: 2mM) 1.073 ± 0.0027; (concentration: 4mM) 1.03 ± 0.039; (concentration: 6mM) 1.05 ± 0.028; (concentration: 8mM) 1.04 ± 0.059; (concentration: 10mM) 1.07 ± 0.059.
On to EXOSC7 (UniProt Q15024), for which the NP40-soluble protein abundance came to 1.03 ± 0.019 (concentration: 1mM); 0.982 ± 0.09 (concentration: 2mM); 1.11 ± 0.041 (concentration: 4mM); 1.08 ± 0.069 (concentration: 6mM); 1.16 ± 0.096 (concentration: 8mM); 1.11 ± 0.12 (concentration: 10mM).
With UniProt Q12904, the NP40-soluble protein abundance reads like this: (concentration: 1mM) 0.99 ± 0.095; (concentration: 2mM) 1.01 ± 0.068; (concentration: 4mM) 0.95 ± 0.11; (concentration: 6mM) 0.99 ± 0.15; (concentration: 8mM) 0.961 ± 0.14; (concentration: 10mM) 0.971 ± 0.15.
In the case of PAK1 (UniProt Q13153), the NP40-soluble protein abundance was 0.989 ± 0.035 (concentration: 1mM); 1.05 ± 0.046 (concentration: 2mM); 0.989 ± 0.036 (concentration: 4mM); 0.981 ± 0.013 (concentration: 6mM); 0.926 ± 0.032 (concentration: 8mM); 0.975 ± 0.041 (concentration: 10mM).
In the case of UniProt Q13136 and related entries, the NP40-soluble protein abundance came out at 0.998 ± 0.024 (concentration: 1mM); 1.03 ± 0.042 (concentration: 2mM); 1.03 ± 0.047 (concentration: 4mM); 0.954 ± 0.038 (concentration: 6mM); 0.954 ± 0.046 (concentration: 8mM); 0.997 ± 0.078 (concentration: 10mM).
For TFDP1 (UniProt Q14186), the NP40-soluble protein abundance stood at 1.03 ± 0.015 (concentration: 1mM); 1.03 ± 0.022 (concentration: 2mM); 1.03 ± 0.012 (concentration: 4mM); 0.9853 ± 0.0079 (concentration: 6mM); 1 ± 0.031 (concentration: 8mM); 1.02 ± 0.021 (concentration: 10mM).
For the target UniProt Q13438 and related entries, the NP40-soluble protein abundance reads like this: (concentration: 1mM) 1.02 ± 0.014; (concentration: 2mM) 1.01 ± 0.052; (concentration: 4mM) 1 ± 0.024; (concentration: 6mM) 0.994 ± 0.015; (concentration: 8mM) 0.98 ± 0.041; (concentration: 10mM) 0.987 ± 0.012.
